Measured data: PubChem BioAssay AID504786 (Drosophila RNAi Screening Center, 2011)
Purpose: 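Knock-downs reducing HIF reporter induction by the iron chelator DFO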 (primary screen). Cells: Drosophila S2 cells with a stable HIF luciferase reporter. Knock-down reagent: long dsRNA against Drosophila genes, about 0.2 µg dsRNA per well of a 384-well plate. Duration: three days of knock-down, then 20 h of DFO before reading. Conditions: desferrioxamine (DFO) at 100 µM, an iron chelator that mimics hypoxia, for 20 h. Measurement: 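Firefly luciferase driven by the mouse ldh-a hypoxia-response element, measured after 20 h of 100 µM DFO; z-scores per plate, higher means more signal lost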. Scale: z-score: higher = stronger loss of HIF reporter signal.
In all, the deposit lists about 21,000 reagents; this is an unselected part of those with a known target gene and a result. 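Primary screen; positive scores mean lost reporter signal, so the sign may be inverted from the usual convention.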 A plus sign joins genes that one reagent is predicted to hit.

The first 2 records as a preview:
no.	gene knocked down	dsRNA	z-score, replicate 1	z-score, replicate 2	z-score, replicate 3	z-score, replicate 4
1	Eno	DRSC00750	-0.4	-1.2		
2	Ccdc58	DRSC10218	-0.3	-0.3		

The list itself, from the start:
no.	gene knocked down	dsRNA	z-score, replicate 1	z-score, replicate 2	z-score, replicate 3	z-score, replicate 4
1	Eno	DRSC00750	-0.4	-1.2		
2	Ccdc58	DRSC10218	-0.3	-0.3		
3	CG17258	DRSC00495	-0.2	-0.1		
4	CG14075	DRSC10080	-0.3	0		
5	Wdr62	DRSC00081	0.1	-0.1		
6	Wdr62	DRSC00082	0.1	0		
7	Wdr62	DRSC00701	-0.3	-0.7		
8	Cyp308a1	DRSC20238	-0.7	-0.1		
9	aurB	DRSC03548	-0.3	-0.4		
10	mthl13	DRSC05238	-0.1	-0.1		
11	Or19a	DRSC20684	-0.2	-0.3		
12	CG7840	DRSC03075	-0.3	-0.1		
13	CG13589	DRSC04225	0.1	-0.9		
14	abs	DRSC12372	0.6	0.9		
15	Lcp65Ac	DRSC11210	-0.3	-0.2		
16	CG14669	DRSC12065	2.1	-0.1		
17	CG14669	DRSC12067	-0.3	0.8		
18	CG14669	DRSC12068	-0.4	0.7		
19	CG14669	DRSC12255	-0.5	-1.1		
20	Ice1	DRSC04191	5	4.5		
21	Mp	DRSC10193	-0.3	-0.6		
22	Mp	DRSC11029	-0.3	-0.6		
23	Mp	DRSC11030	-0.5	-1		
24	CAH15	DRSC04534	-0.2	-0.4		
25	CG2528	DRSC03724	-0.2	-0.1		
26	RpL23A	DRSC08694	-0.2	-0.2		
27	CG32668	DRSC18879	-0.2	0		
28	Nuak	DRSC14414	-0.3	-0.2		
29	Nuak	DRSC14415	-0.4	-0.4		
30	Nuak	DRSC14416	-0.3	-0.3		
31	CG14450	DRSC11707	0.2	0.7		
32	SmydA-5	DRSC04867	-0.1	-0.3		
33	CG9672	DRSC20201	-0.3	0.3		
34	GstE13	DRSC06083	-0.4	-0.5		
35	ath	DRSC02788	-0.1	0		
36	Mat89Ba	DRSC14540	-0.1	1.1		
37	CG12237	DRSC19449	-0.4	-0.4	-0.4	-0.2
38	CG42680	DRSC01399	0.1	0.2		
39	CG42699	DRSC18076	-0.3	-0.2		
40	CG42699	DRSC18341	-0.2	-0.1		
41	Fgop2	DRSC02016	0.9	1.5		
42	FoxP	DRSC15159	-0.2	-0.5		
43	CG32409	DRSC08780	-0.3	-0.4	0	-0.1
44	CG4291	DRSC00650	0.1	-0.3		
45	CG15731	DRSC19698	-0.2	0		
46	CG14383	DRSC14841	-0.2	0.2		
47	Cyp301a1	DRSC07365	-0.2	-0.4		
48	Smyd4-4	DRSC05956	0.1	0.1		
49	SppL	DRSC15228	-0.2	-0.6		
50	ND-51	DRSC03145	0.2	0		
51	CG17883	DRSC07838	-0.4	-0.3		
52	coro	DRSC05007	-0.3	-0.2		
53	Delta	DRSC16648	-1.2	-0.3		
54	GstE3	DRSC06673	-0.3	0		
55	CG4324	DRSC04462	-0.1	-0.1		
56	ouib	DRSC14376	-0.3	-0.3		
57	CG31805	DRSC01563	-0.5	-0.3		
58	CCAP-R	DRSC14891	-0.1	-0.5		
59	CCAP-R	DRSC15967	-0.3	-0.7		
60	subdued	DRSC15137	-0.2	-0.1		
61	CG14464	DRSC07760	0.5	0.5		
62	CG8508	DRSC16436	-0.3	-0.8		
63	CG3280 (retired record)	DRSC10356	0	0.1		
64	CG32246	DRSC08115	0.4	0.7		
65	Alg9	DRSC14407	-0.3	-0.1		
66	CG3713	DRSC18648	-0.3	-0.3		
67	CG10761	DRSC17753	-0.3	-0.8		
68	CG17508	DRSC07771	-0.3	-0.2		
69	CG13544	DRSC04186	-0.4	-0.6		
70	Scgalpha	DRSC03076	-0.3	-0.1		
71	CG4998	DRSC10466	-0.1	-0.7		
72	CG6287	DRSC02947	-0.3	-0.5		
73	CG16775	DRSC10225	-0.2	-0.2		
74	CG5011	DRSC00039	-0.6	-0.5		
75	CG5011	DRSC00674	-0.2	0.1		
76	ced-6	DRSC07591	-0.4	-0.8		
77	Sirt7	DRSC14294	-0.1	0.3		
78	Ugalt	DRSC18467	-0.3	-0.6		
79	CG6565	DRSC02970	0	0.3		
80	side-III	DRSC12155	-0.4	-0.9		
81	side-III	DRSC12263	3.1	1.3		
82	side-III	DRSC12264	-0.2	-0.2		
83	CG7900	DRSC16336	-0.3	-0.4	-0.6	-0.1
84	Art7	DRSC04588	-0.2	-0.4		
85	pst	DRSC11003	-0.3	-0.4		
86	CG14929 + CG4970	DRSC02411	-0.3	-0.6		
87	CG14929 + CG4970	DRSC02796	-0.4	0		
88	CG8289	DRSC20101	-0.3	-0.5		
89	CG7789	DRSC16312	-0.3	-0.7		
90	RpL8	DRSC08532	7.5	6.2		
91	RpL8	DRSC08695	7.4	6.8		
92	CG5742	DRSC06949	-0.3	-0.5		
93	CG4607	DRSC18375	-0.3	-0.5		
94	fray	DRSC16950	-0.3	-0.5		
95	CG31493	DRSC12583	-0.4	-0.5		
96	Wee1	DRSC03635	-0.4	-1		
97	CG31872	DRSC02568	-0.1	0.1		
98	CG31872	DRSC02572	-0.2	-0.3		
99	His3.3B	DRSC17773	-0.2	-0.6		
100	His3.3B	DRSC18673	-0.6	1.3		
101	Cyp12b2	DRSC07364	-0.3	-0.2		
102	mfrn	DRSC15687	1	0		
103	eIF3m	DRSC07142	5.2	3.8		
104	amon	DRSC13784	-0.3	-0.1		
105	amon	DRSC16900	-0.4	-0.5	-0.1	-0.5
106	CG13561	DRSC04199	-0.3	-0.4		
